According to doi:10.1101/2022.07.26.501514:
Substitutions are numbered along the chain they refer to. No constants are given. Whether binding was seen depends on the method and setting. Some entries that bind do so weakly or less than the wild type. For part of these data: Tags and fused reporters may be left off the sequences shown.

T1: Atg18 wildtype (Autophagy-related protein 18, Saccharomyces cerevisiae) (Saccharomyces cerevisiae), P43601
T1 chain: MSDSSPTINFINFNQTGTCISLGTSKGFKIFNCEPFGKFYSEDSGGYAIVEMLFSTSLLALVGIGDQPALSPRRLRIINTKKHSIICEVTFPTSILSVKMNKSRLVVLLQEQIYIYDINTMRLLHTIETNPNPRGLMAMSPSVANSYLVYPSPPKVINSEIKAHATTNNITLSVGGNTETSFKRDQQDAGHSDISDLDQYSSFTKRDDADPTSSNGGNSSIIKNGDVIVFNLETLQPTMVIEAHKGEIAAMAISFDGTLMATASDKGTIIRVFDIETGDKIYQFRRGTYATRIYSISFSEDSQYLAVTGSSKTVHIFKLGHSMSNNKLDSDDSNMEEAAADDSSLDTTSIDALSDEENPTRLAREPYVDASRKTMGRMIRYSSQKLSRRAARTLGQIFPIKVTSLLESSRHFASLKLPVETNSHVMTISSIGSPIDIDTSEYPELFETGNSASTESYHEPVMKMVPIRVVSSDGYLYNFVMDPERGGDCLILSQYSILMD

B1: Atg18 wildtype (Autophagy-related protein 18, Saccharomyces cerevisiae), P43601 1-500 (natural protein)
chain: T1 chain
B2: Atg18-FGGG (FRRG motif changed to FGGG) (protein, UniProt P43601 1-500)
chain: T1 chain with R285G, R286G

What was measured:
[1] = molecular target: T1, Atg18 wildtype (Autophagy-related …); test: negative stain EM; conditions: remark: other sources report otherwise
[2] = molecular target: T1, Atg18 wildtype (Autophagy-related …); test: electron cryo-tomography with subtomogram averaging; conditions: remark: other sources report otherwise
[3] = molecular target: T1, Atg18 wildtype (Autophagy-related …); test: co-sedimentation; conditions: remark: other sources report otherwise
[4] = molecular target: T1, Atg18 wildtype (Autophagy-related …); test: cryo-EM structure; conditions: remark: other sources report otherwise
[5] = molecular target: Atg18-FGGG (FRRG motif changed to FGGG) (Saccharomyces cerevisiae) (UniProt P43601); test: co-sedimentation
[6] = molecular target: Atg18-FGGG (FRRG motif changed to FGGG) (Saccharomyces cerevisiae) (UniProt P43601); test: negative stain EM

| binding [1] | binding [2] | binding [3] | binding [4] | binding [5] | binding [6] | Binder |
| --- | --- | --- | --- | --- | --- | --- |
| binds | binds | binds | binds | – | – | B1 |
| – | – | – | – | no binding (tested: 100 uM) | no binding | B2 |
